# Measurements taken from PubChem BioAssay AID493014 (National Center for Advancing Translational Sciences (NCATS), 2011).
# This is one part of the list. The main result of the screen is listed elsewhere. These columns were measured beside it and carry no call. Most of these compounds were active or inconclusive in the main read-out, so they are no random draw. The note in brackets gives the kind of curve behind each potency; many fits are weak.
# Assay: qHTS Assay to Find Inhibitors of Chronic Active B-Cell Receptor Signaling
# Settings: ABC-DLBCL IkBa-CBG/CBR reporter, luminescence ratio (green luciferase fused to IkBa over red control in TMD8 lymphoma cells), 4 h
# Method in brief: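 TMD8 human ABC-DLBCL cells with doxycycline-inducible IκBα–green luciferase fusion and unfused red luciferase, in 0.5% FBS medium; compounds up to 46 uM, 4 h at 37C. Green/red luminescence ratio, filter-overlap corrected, fitted to concentration-response curves.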
# [1] = measured here: CBR red luminescence, cell number
# [2] = measured here: IkBa-CBG green luminescence
Structure (SMILES),AC50 [1],AC50 [2]
Cc1nn2c(-c3ccccn3)ccnc2c1Cl,"6.31 µM [falling, partial curve, poor fit]",
CCN(CC)S(=O)(=O)c1ccc(N2CCOCC2)c(NC(=O)c2[nH]c(C)c(C(C)=O)c2C)c1,"4.11 µM [rising, full curve]","4.11 µM [falling, full curve]"
C/C(=N\NC(=O)c1cc(C)[nH]n1)c1cccs1,"7.08 µM [falling, partial curve]",
CCCN(CCC)C(=O)C1CCN(c2cc(C)nc3c(-c4ccc(OC)c(OC)c4)c(C)nn23)CC1,"7.31 µM [rising, partial curve, poor fit]",
C=CCNc1nc(NCc2ccccc2)c(C#N)c2c1CN(C)CC2,"3.98 µM [rising, full curve, poor fit]",
Cc1ccc(C(=O)COC(=O)c2nc3nccc(C)n3n2)c(C)c1,"18.4 µM [rising, partial curve]",
C/C=C/C=N/Nc1nc(C)cc(=O)[nH]1,"12.6 µM [falling, partial curve, poor fit]",
CCCc1cc(=O)oc2c3c(cc(OCC(=O)N[C@@H](CSC)C(=O)O)c12)OC(C)(C)CC3,"15.8 µM [rising, partial curve, poor fit]",
O=C(O)CC1(c2ccccc2)C(=O)c2ccccc2C1=O,"35.5 µM [falling, single point]",
CSc1nc(C)c(C(=O)C[n+]2ccc(C)cc2)cc1C#N,"3.55 µM [falling, full curve, poor fit]",
Cc1c(/N=C(\[O-])Nc2ccc(Br)cc2)sn[n+]1C,"5.62 µM [falling, full curve, poor fit]",
CCOc1ccc(-n2cc(-c3ccccc3)c3c(NC4CCCCC4)ncnc32)cc1,"10 µM [rising, partial curve, poor fit]",
Nc1nc(Nc2ccccc2F)nc(NCCO)c1[N+](=O)[O-],"6.31 µM [falling, single point]",
Cc1cc(C)cc(N(CC(=O)NCc2ccco2)S(=O)(=O)c2ccccc2)c1,"35.5 µM [falling, single point]",
CC(=O)N(CCC(c1ccco1)C(C)C)Cc1ccc(OC(C)C)cc1 (configuration not stated),"35.5 µM [falling, single point]",
O=C(c1ccc(S(=O)(=O)N2CCCCC2)cc1)N1CCN(c2ccccc2F)CC1,"29.1 µM [falling, partial curve, poor fit]",
O=C(CSC(=S)N1CCCCC1)Nc1ncc2c(n1)CCCC2=O,"3.98 µM [falling, single point]",
COC(=O)c1ccc(NC(=O)C2CCCN(S(=O)(=O)c3cnc[nH]3)C2)cc1 (configuration not stated),"25.9 µM [falling, partial curve, poor fit]",
O=C(CCCCN1CCCCC1)c1ccc2c(c1)Cc1ccccc1-2,"3.55 µM [falling, partial curve, poor fit]",
Cc1ccc(C(=O)NCc2cccnc2)o1,"6.31 µM [rising, single point]",
COc1cccc(NC(=O)CSc2nc(=O)n(Cc3ccccn3)c3c2CCC3)c1,"35.5 µM [falling, single point]","5.62 µM [rising, partial curve, poor fit]"

Structure (SMILES),AC50 [1],AC50 [2]
CCOC(=O)c1sc(NC(=O)c2cncc(Br)c2)nc1C,"0.00517 µM [falling, full curve, poor fit]",
O=C(CSc1ncnc2sccc12)Nc1ccccc1F,"11.2 µM [falling, partial curve]",
COc1ccccc1NC(=O)CN(Cc1ccco1)C(=O)c1ccc(N2CCCC2=O)cc1,"20.6 µM [rising, partial curve]",
COc1cccc(NC(=O)c2ccc3c(c2)N(C)CCS3)c1,"3.55 µM [falling, partial curve, poor fit]",
O=C(Nc1nc2c(s1)CCCC2)c1ccc(Br)o1,"10 µM [falling, partial curve, poor fit]",
O=C(Nc1nnc(SCc2ccc(F)cc2)s1)c1ccco1,"0.82 µM [rising, partial curve, poor fit]",
O=C1C(Cc2ccccc2)Nc2ncnc(N3CCc4ccccc4C3)c2N1Cc1ccc(Br)cc1 (configuration not stated),"29.1 µM [falling, single point]",
O=C(Nc1ccc(Cl)cc1)Nc1nnc(CSCc2ccccc2Cl)s1,"29.1 µM [rising, partial curve, poor fit]",
C/C=C/c1ccc(OCC(=O)OCC)c(OC)c1,"12.6 µM [rising, partial curve, poor fit]",
Cc1ccc(NC(=O)Nc2ccc(Cl)c(Cl)c2)nc1,"3.55 µM [rising, partial curve, poor fit]",
CC1CCN(S(=O)(=O)N2CCC(C(=O)NCc3ccc4c(c3)OCO4)CC2)CC1,"13 µM [rising, partial curve, poor fit]",
Cc1c(C(=O)N(C)CCOc2ccccc2)oc2c(Cl)cccc12,"5.17 µM [rising, full curve, poor fit]",
NS(=O)(=O)c1ccc(CCNS(=O)(=O)c2ccc(Cl)nc2)cc1,"20 µM [rising, single point]",
CCNc1c(NS(=O)(=O)c2ccc(OC)c(Cl)c2)c(=O)oc2ccccc12,"20 µM [falling, single point]",
O=C(Nc1ccccn1)c1ccc([N+](=O)[O-])cc1Cl,"29.1 µM [rising, single point]",
COc1cc(/C=C/C(=O)OCC(=O)N2CCN(S(=O)(=O)c3ccc(C)cc3C)CC2)cc(Cl)c1OC,"3.66 µM [rising, partial curve, poor fit]",
O=C(NC(=S)Nc1ccc2oc(=O)ccc2c1)c1ccco1,"4.47 µM [rising, partial curve, poor fit]",
COc1cc(CN2CCNC(=O)C2CC(=O)NC2CCCCC2)cc(OC)c1 (configuration not stated),"11.2 µM [falling, partial curve, poor fit]",
Cc1cc(N2CC(C)OC(C)C2)n2cc(-c3ccccc3)nc2n1 (configuration not stated),"35.5 µM [falling, single point]",
COc1cc(OC)cc(C(=O)Nc2nc(CC(=O)NCc3ccccc3OC)cs2)c1,"29.1 µM [falling, single point]",
COc1ccc(S(=O)(=O)N2CCN(C(=O)c3cccc(Cl)c3)CC2)cc1,"29.1 µM [falling, single point]","29.1 µM [rising, partial curve, poor fit]"

Structure (SMILES),AC50 [1],AC50 [2]
COc1ccc(N(C(=O)c2ccncc2)S(=O)(=O)c2ccc(Cl)cc2)cc1,"7.94 µM [falling, partial curve, poor fit]",
CC(=O)NS(=O)(=O)c1ccc(NC(=S)NC(=O)C(C)C)cc1,"29.1 µM [rising, single point]",
O=C(CNC(=O)c1cccs1)NCC(=O)OCc1ccccc1Br,"5.62 µM [rising, full curve]",
Cc1sc2nc(SCC(=O)Nc3cccc(C(=O)O)c3)[nH]c(=O)c2c1C,"11.6 µM [falling, partial curve]",
CN1CCN(C(=O)c2cc(-c3cccc(Cl)c3)on2)CC1,"1.78 µM [rising, partial curve, poor fit]",
CC1CN(C(=O)CSc2nc(-c3ccccc3)cs2)CC(C)O1 (configuration not stated),"25.9 µM [rising, single point]",
Cc1ccccc1NC(=S)N(CCc1c(C)[nH]c2ccc(F)cc12)Cc1ccncc1,"35.5 µM [falling, single point]",
COc1ccccc1NS(=O)(=O)c1cccc(NC(=O)Nc2cccc(Cl)c2)c1,"8.2 µM [falling, partial curve, poor fit]",
COC(CN(C)C(=O)c1cn(C)c2ccc(S(=O)(=O)N(C)C3CCCCC3)cc2c1=O)OC,"35.5 µM [rising, partial curve, poor fit]",
COc1ccc(S(=O)(=O)Nc2cc(C(=O)NC(C)C)ccc2N2CCOCC2)cc1,"18.4 µM [rising, single point]","29.1 µM [falling, single point]"
COc1ccc(NC(=O)c2cc(=O)c3ccccc3o2)cn1,"14.1 µM [rising, partial curve, poor fit]",
CN(CC(=O)Nc1ccccc1Br)C(=O)c1n[nH]c2ccccc12,"0.82 µM [falling, full curve]",
CC(C)CC(=O)NS(=O)(=O)c1ccc(NS(C)(=O)=O)cc1,"10 µM [rising, partial curve, poor fit]",
CN(C(=O)c1ccc2c(c1)OCO2)C1(C(=O)NC2CCCC2)CCCCC1,"29.1 µM [falling, single point]",
O=C(O)C(Cc1ccccc1)N1C(=O)c2ccccc2C1=O (configuration not stated),"23.1 µM [rising, single point]",
CCOC(=O)c1ccc(NC(=O)Nc2ccon2)cc1,"3.16 µM [rising, single point]","2.82 µM [falling, full curve]"
CN(C)CCCN1c2ccccc2Sc2ccc(Cl)cc21,"15.8 µM [falling, single point]",
COc1ccc(NC(=S)N=Nc2c(O)[nH]c3ccccc23)cc1,"12.6 µM [rising, partial curve]","4.47 µM [falling, full curve]"
CCOc1cc(/C=C/C(=O)c2ccc3c(c2)OCCO3)ccc1OCC(=O)N(C)C,"7.94 µM [falling, partial curve]",

# Laid out differently: results already given.
Structure (SMILES)	AC50 [1]	AC50 [2]
COc1cc(CN2CCNC(=O)C2CC(=O)NC2CCCCC2)cc(OC)c1 (configuration not stated)	11.2 µM [falling, partial curve, poor fit]	
Cc1cc(N2CC(C)OC(C)C2)n2cc(-c3ccccc3)nc2n1 (configuration not stated)	35.5 µM [falling, single point]	
